Results are given in words; binding and its absence hold for the method and conditions named. In cells and extracts the contact can be indirect. Some entries that bind do so weakly or less than the wild type.
Key:
[1] = biological target: myc-tagged HPV16 E7 deletion mutant E7ΔN (aa 28-98) (human papillomavirus type 16 (HPV16)) (UniProt P03129); experiment: co-IP; C33A cells co-transfected with pCMV-flag-SP1 and pCMV-myc-E7FL or pCMV-myc-E7ΔN, 48 h; whole cell lysate, anti-myc IP 12 h, protein G agarose; anti-flag blot
[2] = biological target: myc-tagged HPV16 E7 full length (1-98 aa) (human papillomavirus type 16 (HPV16)) (UniProt P03129); experiment: as above
[3] = biological target: myc-tagged HPV16 E7 deletion mutant E7ΔN (aa 28-98) (human papillomavirus type 16 (HPV16)) (UniProt P03129); experiment: cross-linking + co-IP; total lysate of transfected C33A cells mixed with MALAT1 promoter probe, UV irradiated, incubated with the indicated antibody at 4 °C 12 h, protein G agarose, western blot
[4] = biological target: myc-tagged HPV16 E7 full length (1-98 aa) (human papillomavirus type 16 (HPV16)) (UniProt P03129); experiment: as above

By UniProt entry, the sequences of proteins in these tests, tags left out.
UniProt P08047: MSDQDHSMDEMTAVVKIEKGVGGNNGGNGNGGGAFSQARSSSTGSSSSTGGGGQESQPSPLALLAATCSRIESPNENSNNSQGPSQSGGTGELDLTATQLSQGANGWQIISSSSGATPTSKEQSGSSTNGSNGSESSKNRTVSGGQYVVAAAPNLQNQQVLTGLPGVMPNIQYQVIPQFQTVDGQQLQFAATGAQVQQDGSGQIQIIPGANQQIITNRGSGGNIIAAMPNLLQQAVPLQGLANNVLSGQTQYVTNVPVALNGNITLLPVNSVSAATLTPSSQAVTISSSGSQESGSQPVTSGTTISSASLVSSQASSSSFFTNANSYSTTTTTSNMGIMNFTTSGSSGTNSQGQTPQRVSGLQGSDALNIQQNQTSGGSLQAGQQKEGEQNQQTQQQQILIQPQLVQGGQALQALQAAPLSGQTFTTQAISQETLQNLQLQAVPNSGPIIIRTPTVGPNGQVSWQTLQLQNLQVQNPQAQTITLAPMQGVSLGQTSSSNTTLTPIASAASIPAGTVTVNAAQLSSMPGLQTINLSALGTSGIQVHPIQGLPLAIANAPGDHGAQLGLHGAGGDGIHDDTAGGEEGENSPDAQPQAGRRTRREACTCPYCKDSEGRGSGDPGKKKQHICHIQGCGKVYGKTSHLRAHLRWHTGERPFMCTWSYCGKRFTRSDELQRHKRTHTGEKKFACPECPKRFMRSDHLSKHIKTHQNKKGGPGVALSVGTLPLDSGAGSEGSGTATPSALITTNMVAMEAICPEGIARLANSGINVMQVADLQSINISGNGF

Measured: binding

flag-tagged SP1 (Specificity protein 1) (from UniProt P08047 1-785)
binds: all assays above
